Literature values, collected in US9757337B2, “Multicompartmental lipid nanoparticles” (CENTRE NATIONAL DE LA RECHERCHE SCIENTIFIQUE—CNRS, priority 2013, dated 2017).
≈ marks a conversion by molar mass, not a printed value.

Conditions: cited from earlier work

SMILES: O=c1c(O)c(-c2ccc(O)c(O)c2)oc2cc(O)cc(O)c12 [quercetin]
- solubility in water: ~0.4 µg/mL (≈ 1.32 µM)
